The other results are listed elsewhere or left out.
Target: T1, OsSMF1 (Oryza sativa, UniProt Q6ZLB0 1-436)
T1 sequence: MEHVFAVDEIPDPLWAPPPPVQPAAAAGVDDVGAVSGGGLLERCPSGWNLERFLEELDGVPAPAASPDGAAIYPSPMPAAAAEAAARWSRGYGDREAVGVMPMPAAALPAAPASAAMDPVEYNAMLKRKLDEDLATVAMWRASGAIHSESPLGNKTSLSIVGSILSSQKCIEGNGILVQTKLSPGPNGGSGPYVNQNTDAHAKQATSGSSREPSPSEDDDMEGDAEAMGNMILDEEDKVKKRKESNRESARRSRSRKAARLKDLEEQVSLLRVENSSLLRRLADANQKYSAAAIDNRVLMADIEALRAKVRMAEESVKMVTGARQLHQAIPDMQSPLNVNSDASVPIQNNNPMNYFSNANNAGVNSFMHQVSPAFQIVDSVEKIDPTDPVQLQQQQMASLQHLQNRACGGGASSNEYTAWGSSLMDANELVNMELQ
Test: protein-binding microarray (RPBM); PBS, 2% BSA, 51.3 ng/ul salmon testes DNA, 50 uM zinc acetate, 200 nM TF, 25 C, 1 h; high values mean tight binding
Conditions: protein: recombinant; tags: N-terminal polyhistidine and DsRed monomer fusion (pET32a); chain copies: 2; label: CyDye5-dUTP incorporated in the synthesized complementary strand; 3' TTTTT single-stranded linker to array surface; dsDNA, one strand shown
Summary of the method: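 In PBS with 2% BSA, salmon testes DNA and 50 µM zinc acetate, 200 nM protein was incubated on a custom Agilent array at 25 °C for 1 h and then washed off. The array had been made double-stranded by primer extension with Cy5-dUTP and blocked with 2% BSA. The proteins were transcription factors fused N-terminally to polyhistidine and DsRed, expressed in E. coli BL21-CodonPlus and purified on Ni–NTA. The binding signal is per-feature fluorescence intensity (arbitrary units) from an Axon 4000B scanner.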

Compared with “GCTGCCGCGTGTGGTTGCCGACTGTACGGACACCCCAGCCCGGAGTCACCTAGTGCAG”, “TGTTGGCGATCACGCTCACGACTCGCTTTCGGGACGAGGACGGAGTCACCTAGTGCAG” is lower in binding signal: 3580 fluorescence intensity (a.u.) for the first, 3170 fluorescence intensity (a.u.) for the second.

Going from “ACCACGGCAAACGAAGCCTCGCCTTTATGAAACGAGAGAACGGAGTCACCTAGTGCAG” to “GAACTCTGCCATTGACACTTCAGCTGCAAATACTATTATGCGGAGTCACCTAGTGCAG”, the binding signal rises from 3500 fluorescence intensity (a.u.) to 3770 fluorescence intensity (a.u.).

Going from “TCACGTGTTAGTTTACCTGTAGCTAACCATCATGGTCATGCGGAGTCACCTAGTGCAG” to “CCCTCTCCTGCTGTCATGCATGGCTGCATATATACAGGCTCGGAGTCACCTAGTGCAG”, the binding signal falls from 4320 fluorescence intensity (a.u.) to 3360 fluorescence intensity (a.u.).

Going from “CATCGTCGTTATGCTCCACGTCACCGACGCCGGCTCTTCGCGGAGTCACCTAGTGCAG” to “CATTATTGCAGACGGAACACATCATCACGACATCTCACTCCGGAGTCACCTAGTGCAG”, the binding signal falls from 33100 fluorescence intensity (a.u.) to 5920 fluorescence intensity (a.u.).

Compared with “ATAAGGACTAGGAGCGATGACCTTTGTTGTGTGCTTTGTTCGGAGTCACCTAGTGCAG”, “ACAACACTACAATATGTCCACGTATAAAACTATCCAATATCGGAGTCACCTAGTGCAG” is higher in binding signal: 3310 fluorescence intensity (a.u.) for the first, 4920 fluorescence intensity (a.u.) for the second.

First: TTTGTACTCATTTTATTACAACATGAACAAACCCTTCTTTCGGAGTCACCTAGTGCAG
Second: CTTGCCTAACCCCACCACTCCACCGCATCACTACACGTGCCGGAGTCACCTAGTGCAG
The binding signal of the first is higher: 3500 fluorescence intensity (a.u.) for the first, 3490 fluorescence intensity (a.u.) for the second.

Going from “ACACTATTTACGATTCTGCCACTCATCCCCGCCACGTGGCCGGAGTCACCTAGTGCAG” to “TCAGTCGGGAGAGGAAGAGTTTGATGGGCCGATGCCGCGGCGGAGTCACCTAGTGCAG”, the binding signal falls from 13400 fluorescence intensity (a.u.) to 4030 fluorescence intensity (a.u.).

First: AACCCGCTCCGCCACCACGAGCTCTCCGGCAAGCCAAGTCCGGAGTCACCTAGTGCAG
Second: TTTTAGTGGTAGACGACGTACCCATTAACAGTGAGGTGTTCGGAGTCACCTAGTGCAG
The binding signal of the first is higher: 34300 fluorescence intensity (a.u.) for the first, 3140 fluorescence intensity (a.u.) for the second.

Compared with “TCCTGCTTGTATCCAAGTGTGCTGCCGTGGACGAGGCTACCGGAGTCACCTAGTGCAG”, “AGACTTATTTTGGGTTTGGGTGCCCTTATGAGTCACTTGTCGGAGTCACCTAGTGCAG” is higher in binding signal: 5540 fluorescence intensity (a.u.) for the first, 6410 fluorescence intensity (a.u.) for the second.

First: CCTCGGGGAGGGCGTGGCAAGCGGCACGCGTGGCGGGGAGCGGAGTCACCTAGTGCAG
Second: GTTTGGGGTTTCTTTCCTGCCTCGTGAGCTGACGCCGGTGCGGAGTCACCTAGTGCAG
The binding signal of the first is higher: 5890 fluorescence intensity (a.u.) for the first, 4080 fluorescence intensity (a.u.) for the second.

Compared with “ATAGCAGAGATAATACACATGACATGTTTCCCAGCTATATCGGAGTCACCTAGTGCAG”, “TGGTTGAAAATCAAGATTCAGTTATAATATACCACATCAGCGGAGTCACCTAGTGCAG” is higher in binding signal: 3140 fluorescence intensity (a.u.) for the first, 5000 fluorescence intensity (a.u.) for the second.

First: GGGCCGTAAATCTTGTGTGTCACGACTCACGAGTAAACCGCGGAGTCACCTAGTGCAG
Second: CTCTTGGTTGGGTGCCAACTGCCAATGACTTGACAAGTTGCGGAGTCACCTAGTGCAG
The binding signal of the first is higher: 3640 fluorescence intensity (a.u.) for the first, 3410 fluorescence intensity (a.u.) for the second.

Going from “ACGCAGGCGCACATCAGCCACGCGATAACCGAATCCGATGCGGAGTCACCTAGTGCAG” to “ACCGGGCTGGTCGATCTGCCTCGTTGGCGGCCGGCCGCCGCGGAGTCACCTAGTGCAG”, the binding signal rises from 3350 fluorescence intensity (a.u.) to 4410 fluorescence intensity (a.u.).

First: ATGACATCAATGAAATGGTTAGGTAAGAAAATTATGTCCGCGGAGTCACCTAGTGCAG
Second: CGCACCCACGCAGACGCAGGGAGGCGCACCATGTACTGAGCGGAGTCACCTAGTGCAG
The binding signal of the first is lower: 5310 fluorescence intensity (a.u.) for the first, 21400 fluorescence intensity (a.u.) for the second.

First: GAATCAGTAAATAAAGCGCTAGGTTTAATGATGTCATGGACGGAGTCACCTAGTGCAG
Second: TGTCATTTGCTGATTCATATTGCTATCTTATTTAGTTGGTCGGAGTCACCTAGTGCAG
The binding signal of the first is higher: 6840 fluorescence intensity (a.u.) for the first, 5100 fluorescence intensity (a.u.) for the second.

Compared with “CGCTTGCTGATGATCTGTTCCACGGTGACCACGACTCGCTCGGAGTCACCTAGTGCAG”, “AACAATGCACACAGACATTGACATATCCATGGTCCAGGGACGGAGTCACCTAGTGCAG” is higher in binding signal: 3190 fluorescence intensity (a.u.) for the first, 3430 fluorescence intensity (a.u.) for the second.

Going from “GAGGAGCGAGGGTTTGCTGTTGATTTGGTCACAGTAACATCGGAGTCACCTAGTGCAG” to “GCGACGTAAGCAGCCACGTTAGATAAAATCACCAAACCGCCGGAGTCACCTAGTGCAG”, the binding signal falls from 21900 fluorescence intensity (a.u.) to 4450 fluorescence intensity (a.u.).

First: GCGATGTTGTCGGCGTGGAAGCCACTGACGGCTTTCTCGGCGGAGTCACCTAGTGCAG
Second: GTGTTTTGACGCATGCATGCCGTTGGTCATCAGTTAATCACGGAGTCACCTAGTGCAG
The binding signal of the first is higher: 3830 fluorescence intensity (a.u.) for the first, 3480 fluorescence intensity (a.u.) for the second.

First: CGGACTCGGAGACTTCGTCATGGAGCCCCTGCTGTTCTTGCGGAGTCACCTAGTGCAG
Second: CCGACCGTGCCGGCAAGAATGCGGCGGTGCACGCCTCCAACGGAGTCACCTAGTGCAG
The binding signal of the first is higher: 4030 fluorescence intensity (a.u.) for the first, 3260 fluorescence intensity (a.u.) for the second.

Compared with “TCTGTGTGATCCTAGCCGCTCCGCCGCCACTCACGGTTGTCGGAGTCACCTAGTGCAG”, “GTAATTGACAACTGACAACCGACAGTTATTGACTCATTCCCGGAGTCACCTAGTGCAG” is lower in binding signal: 3860 fluorescence intensity (a.u.) for the first, 3340 fluorescence intensity (a.u.) for the second.

Going from “TCCATCTCCGATCGGACGGTCGATCATCCATGTTACACTGCGGAGTCACCTAGTGCAG” to “CGCGAAGGTTGACGCTGTTCCACGACCACCCGGTCCTGGGCGGAGTCACCTAGTGCAG”, the binding signal falls from 3380 fluorescence intensity (a.u.) to 3240 fluorescence intensity (a.u.).

Source: article PMC7819943, “Rice protein-binding microarrays: a tool to detect cis-acting elements near promoter regions in rice”
